Test results as given in PubChem BioAssay AID1347075 (National Center for Advancing Translational Sciences (NCATS), 2019).
Screen size: about 400,000 compounds; about 5,500 (1.4%) were called active. Inconclusive means that the source gave no clear call. Such entries were picked first, then a sample of the others. The call rests on the fitted dose curve; in most records, active means well fitted cell-killing curve with a large enough effect; inconclusive means small, poorly fitted or top-dose-only effect, or effect the other way; inactive means flat fitted curve, though single readings scatter. A potency beside an inconclusive call is a rough fit, not a confirmed value.

Assay: qHTS assay for MDR1-selective chemotherapeutics: Primary screen using the parental adenocarcinoma cell KB-3-1; further: nearly all actives have a fitted effect of over 60% in size
Details: KB-3-1 viability, CellTiter-Glo ATP luminescence, 72 h; activity change, negative = cytotoxic: at 46.1 µM (top of the series)
In short: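 Cytotoxicity measured as CellTiter-Glo luminescence after 72 h at 37 C. Compound titrations were pinned onto drug-naive KB-3-1 parental adenocarcinoma cells grown in DMEM with 10% FBS, and normalized data fitted to concentration-response curves.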
On the % scale 0 is the no-effect control and ±100 the full control effect; potency means the concentration at half of the fitted maximal effect.

Question: For `Cc1[nH]n(-c2ccccc2)c(=O)c1C(=O)Nc1ccccc1`, which Potency is on record?
Answer: inactive

Question: With `CC(=O)NC(=C(Cl)Cl)S(=O)(=O)c1ccccc1` as the molecule, how does the Potency read?
Answer: inconclusive: 16.4 µM [cytotoxic, single point]

Question: With `CC1=C2C3OC(=O)C(C)C3CCC2(C)C=C(Cl)C1=O` (configuration not stated) as the molecule, how does the Potency read?
Answer: inactive

Question: Which Potency does the source give for `NC(=O)c1cccc(-c2ccnc3c2CC(C(=O)NCc2ccco2)O3)c1` (configuration not stated) here?
Answer: active: 6.51 µM

Question: For `CCCc1cc(=O)oc2cc(C)cc(OCC(=O)Nc3ccc(CN4CCOCC4)cc3)c12`, which Potency is on record?
Answer: inactive

Question: For `O=C(Cn1ncc2c3ccccc3n(Cc3ccccc3)c2c1=O)Nc1ccccc1C(F)(F)F`, which Potency is on record?
Answer: inactive

Question: For `O=C(Nc1c2c(nn1-c1ccc([N+](=O)[O-])cc1)CS(=O)(=O)C2)c1ccccc1F`, which Potency is on record?
Answer: inactive

Question: With `Nn1c(C2CCCCC2)nc2ccccc2c1=O` as the molecule, how does the Potency read?
Answer: inactive

Question: With `COc1ccc(CN2C(=O)C(CC(=O)NCCc3ccccn3)CC(C(=O)N(C(C)C)C(C)C)=C2C)cc1` (configuration not stated) as the molecule, how does the Potency read?
Answer: inactive

Question: For `CCOC(=O)N(O)c1ccc(C=Cc2ccccc2)cc1`, which Potency is on record?
Answer: inconclusive: 29.1 µM [cytotoxic, single point]

Question: Which Potency does the source give for `CC(C)C1CCN(C(=O)C2CCC(=O)N(CCc3ccc(Cl)cc3)C2)CC1` (configuration not stated) here?
Answer: inconclusive: 29.1 µM [cytotoxic, single point]

Question: For `CCC(C(=O)O)P(=O)(c1ccc(Cl)cc1)c1ccc(Cl)cc1` (configuration not stated), which Potency is on record?
Answer: inactive

Question: Which Potency does the source give for `O=C(CN1CCN(S(=O)(=O)c2cccc(Br)c2)CC1)NCCc1cccs1` here?
Answer: inconclusive: 18.4 µM [cytotoxic, single point]

Question: For `O=C(/C=C/c1ccccc1Cl)c1ccc[nH]1`, which Potency is on record?
Answer: inconclusive: 29.1 µM [cytotoxic, single point]

Question: For `COc1ccc(CNCCC(c2ccccc2)c2ccc3c(c2)OCO3)cc1` (configuration not stated), which Potency is on record?
Answer: inconclusive: 16.4 µM [cytotoxic, single point]

Question: Which activity change, negative = cytotoxic does the source give for `C/C(=N\NC(=O)OC(C)(C)C)c1ccccc1Br` here?
Answer: inconclusive: 30.3%

Question: With `Cn1c(/C=C/c2ccc([N+](=O)[O-])o2)nc2ccccc2c1=O` as the molecule, how does the Potency read?
Answer: active: 1.84 µM

Question: With `O=C(c1ccc(CS(=O)Cc2ccc(Cl)cc2)o1)N1CCN(C2CCCCC2)CC1` (configuration not stated) as the molecule, how does the Potency read?
Answer: inactive

Question: With `CC1CCC(C(C)C)C(OC(=O)C[n+]2cccc(C(N)=O)c2)C1` (configuration not stated) as the molecule, how does the Potency read?
Answer: inconclusive: 29.1 µM [cytotoxic, single point]

Question: With `CCCC1=Nc2cc(C(=O)NCCc3ccccc3)ccc2Sc2ccc(C)cc21` as the molecule, how does the Potency read?
Answer: active: 7.31 µM

Question: With `CC(=O)NC12CC3CC(C1)CC(C(=O)Nc1c(C)n(C)n(-c4ccccc4)c1=O)(C3)C2` as the molecule, how does the Potency read?
Answer: inconclusive: 9.2 µM [rising, partial curve, poor fit]

Question: With `CC(C)c1ccc(OCC(=O)NNC(=S)NC(=O)c2cccs2)c(Br)c1` as the molecule, how does the Potency read?
Answer: inconclusive: 23.1 µM [cytotoxic, single point]

Question: For `CCCCN(CC)C(=O)c1cc2cc3ccc(OC)cc3nc2o1`, which Potency is on record?
Answer: inconclusive: 29.1 µM [cytotoxic, single point]

Question: For `CCN1CCN(c2ccc(Nc3ccnc4ccccc34)cc2)CC1`, which Potency is on record?
Answer: inconclusive: 13 µM [cytotoxic, partial curve, poor fit]

Question: For `CC(=O)Nc1nc2c(F)cccc2s1`, which Potency is on record?
Answer: inactive

Question: Which Potency does the source give for `CC(C)(CN1CCCN(CC(C)(C)C(=O)O)C1=O)C(=O)O` here?
Answer: inactive

Question: For `CC(Oc1cccc(Br)c1)C(=O)NNC(=O)c1ccccn1` (configuration not stated), which Potency is on record?
Answer: inconclusive: 6.51 µM [cytotoxic, full curve, poor fit]

Question: Which Potency does the source give for `CCOC(=O)C1=C(C)OC2(O)c3ccccc3C(=O)C12O` (configuration not stated) here?
Answer: inactive

Question: Which Potency does the source give for `COc1ccc(NC(=O)Cn2cnc3ccc(S(=O)(=O)N4CCC(C)CC4)cc3c2=O)cc1OC` here?
Answer: inactive

Question: With `COc1ccccc1-c1c(C)nn2c(N3CCCCCC3)cc(C)nc12` as the molecule, how does the activity change, negative = cytotoxic read?
Answer: inconclusive: -55.3%

Question: For `Cn1c2ccccc2c(=O)c2c(=O)n(C3CCCCCC3)c(C3CCCCC3)nc21`, which Potency is on record?
Answer: inconclusive: 20.6 µM [cytotoxic, single point]

Question: With `CCc1nc(C)c(-c2ccccc2)c(=O)[nH]1` as the molecule, how does the Potency read?
Answer: inactive

Question: Which Potency does the source give for `COC(=O)[C@@]12CCCCN1[C@H](c1ccc(-c3cccc(Cl)c3)cc1)[C@H]1C(=O)N(C)C(=O)[C@H]12` here?
Answer: inconclusive: 29.1 µM [cytotoxic, single point]

Question: Which Potency does the source give for `CCOc1ccc(NS(=O)(=O)c2ccc(C(=O)NC3CCC(O)CC3)cc2)cc1` (configuration not stated) here?
Answer: inactive

Question: For `CC(C)CNC(=O)C1(C)CCCCCN1Cc1ccccc1-c1ccccc1` (configuration not stated), which Potency is on record?
Answer: inconclusive: 29.1 µM [cytotoxic, single point]

Question: With `O=C(NC(=S)NC1CCS(=O)(=O)C1)c1ccccc1` (configuration not stated) as the molecule, how does the Potency read?
Answer: inconclusive: 32.6 µM [rising, partial curve, poor fit]

Question: Which Potency does the source give for `Cc1cc(Nc2ccccc2)c2c([N+](=O)[O-])c(C)cc(C)c2n1` here?
Answer: inconclusive: 23.1 µM [cytotoxic, single point]

Question: For `OCC(O)/C=N/Nc1nc(N2CCCCC2)nc(N2CCCCC2)n1` (configuration not stated), which Potency is on record?
Answer: inactive

Question: With `Cc1c(-c2nsc(NC(=O)c3cccc(Cl)c3)n2)nnn1-c1ccccc1C(F)(F)F` as the molecule, how does the Potency read?
Answer: active: 23.1 µM

Question: For `Cc1ccc(/C=C/C(=O)N2CCN(S(=O)(=O)c3ccc(C)c(C)c3)CC2)o1`, which Potency is on record?
Answer: inactive

Question: With `CC(C)N1CCc2c(sc(NC(=O)c3ccc(S(=O)(=O)N4CCc5ccccc54)cc3)c2C(N)=O)C1` as the molecule, how does the Potency read?
Answer: active: 20.6 µM

Question: Which Potency does the source give for `Cc1ccc(S(=O)(=O)Nc2ccc3c(c2)OCCO3)cc1` here?
Answer: inconclusive: 18.4 µM [cytotoxic, partial curve]

Question: Which Potency does the source give for `COc1ccc(NC(=O)CC2C(=O)N(c3ccc(F)cc3)C(=S)N2NC(=O)c2ccc(Cl)cc2)cc1` (configuration not stated) here?
Answer: inconclusive: 5.17 µM [cytotoxic, full curve, poor fit]

Question: Which Potency does the source give for `CC(=O)c1c(C)[nH]c(C(=O)OCC(=O)Nc2sc3c(c2C#N)CCCC3)c1C` here?
Answer: inconclusive: 6.51 µM [cytotoxic, partial curve]

Question: With `COc1ccc(/C=C2\SC(=S)N(CCC(=O)N3CCOCC3)C2=O)cc1` as the molecule, how does the Potency read?
Answer: inactive

Question: Which Potency does the source give for `CCOC(=O)N/N=C\c1ccc([N+](=O)[O-])s1` here?
Answer: inconclusive: 29.1 µM [cytotoxic, single point]

Question: Which Potency does the source give for `Nc1c(-c2nc(-c3ccc4c(c3)OCO4)cs2)c2ccccn2c1C(=O)c1ccccc1` here?
Answer: inactive

Question: With `CCCCn1c(NCc2cc(Cl)ccc2O)nc2ccccc21` as the molecule, how does the Potency read?
Answer: inconclusive: 20.6 µM [cytotoxic, single point]

Question: With `Clc1ccccc1/C=C/C=N/Nc1nc(N2CCOCC2)nc(N2CCOCC2)n1` as the molecule, how does the Potency read?
Answer: inconclusive: 14.6 µM [rising, partial curve, poor fit]

Question: With `CC(=O)N1CC(=O)N=C1SCC(=O)Nc1nc(C)c(-c2ccccc2)s1` as the molecule, how does the Potency read?
Answer: inconclusive: 29.1 µM [cytotoxic, single point]

Question: With `O=C(c1cc(NC(=O)C23CC4CC(CC(C4)C2)C3)cc(NC(=O)C23CC4CC(CC(C4)C2)C3)c1)N1CCCCC1` as the molecule, how does the Potency read?
Answer: inconclusive: 11.6 µM [cytotoxic, single point]

Question: Which Potency does the source give for `CCCCN1C(=N)N([C@@H](CCC)CN2CCC[C@H]2CN2C(N)=NC[C@H]2CC(C)C)C[C@H]1Cc1ccccc1` here?
Answer: inactive

Question: For `Cc1ccc(S(=O)(=O)N2CCN(c3nc(-c4cccs4)nc4ncccc34)CC2)cc1`, which activity change, negative = cytotoxic is on record?
Answer: inconclusive: -46.4% [cytotoxic]

Question: For `CSC1=NC(C)(C)C=C(/C=C/c2ccc(Cl)cc2Cl)N1`, which Potency is on record?
Answer: inconclusive: 18.4 µM [cytotoxic, partial curve, poor fit]

Question: For `O=C(C1CCCN(S(=O)(=O)c2cccc3nsnc23)C1)N1CCN(c2ccccc2Cl)CC1` (configuration not stated), which Potency is on record?
Answer: inconclusive: 29.1 µM [cytotoxic, single point]

Question: Which Potency does the source give for `Cc1nonc1OCC(C)(COc1nonc1C)NC(=O)c1ccc(Cl)cc1` here?
Answer: inconclusive: 7.31 µM [cytotoxic, partial curve]

Question: Which Potency does the source give for `CCOc1ccccc1Nc1ncnc2c1cnn2-c1ccccc1` here?
Answer: inconclusive: 0.0461 µM [rising, full curve]

Question: With `COc1cccc(N2CCN(c3ncnc4onc(-c5ccc(F)cc5)c34)CC2)c1` as the molecule, how does the Potency read?
Answer: inactive

Question: For `CCN1C/C(=C\c2cc(OC)c(OC)c(OC)c2)C2=NN(c3ccccc3)C(c3cc(OC)c(OC)c(OC)c3)C2C1` (configuration not stated), which Potency is on record?
Answer: inconclusive: 13 µM [cytotoxic, partial curve]

Question: Which Potency does the source give for `Brc1ccc(CN2CC[C@H]3C=CCc4cccc(c43)C2)cc1` here?
Answer: inconclusive: 14.6 µM [cytotoxic, single point]

Question: Which Potency does the source give for `CC(C)OC(=O)N(C)C[C@H]1OCc2cn(nn2)CCCC(=O)N([C@H](C)CO)C[C@@H]1C` here?
Answer: inactive

Question: Which Potency does the source give for `COC(=O)c1c(C)[nH]c(C(=O)/C=C/c2ccccc2)c1C` here?
Answer: inactive

Question: Which Potency does the source give for `COc1cc(Cn2c3ccc(NC(=O)CCc4ccccc4)cc3c(=O)n2C)ccc1F` here?
Answer: active: 9.2 µM

Question: With `Cc1ccc2c(c1)N(CC(=O)NCC(C)c1ccccc1)C(=O)c1cccnc1O2` (configuration not stated) as the molecule, how does the Potency read?
Answer: inactive

Question: Which Potency does the source give for `O=C1c2ccccc2NC(c2cccc([N+](=O)[O-])c2)N1O` (configuration not stated) here?
Answer: inconclusive: 29.1 µM [cytotoxic, single point]

Question: With `Nc1nccc(SCc2ccccc2)n1` as the molecule, how does the Potency read?
Answer: inactive

Question: For `CCc1nnc(NC(=O)CSc2nnc(C3CC3)n2C)s1`, which Potency is on record?
Answer: inactive

Question: For `COc1ccccc1/C=C(/C(=O)OCC(=O)Nc1ccccc1C)c1ccccc1`, which Potency is on record?
Answer: inconclusive: 23.1 µM [cytotoxic, single point]

Question: For `CC(C)c1ccc(/C=N/NC(=O)c2cc(-c3cccc([N+](=O)[O-])c3)n[nH]2)cc1`, which Potency is on record?
Answer: inconclusive: 23.1 µM [cytotoxic, partial curve, poor fit]

Question: With `COC(=O)CSc1nnc(C2COc3ccccc3O2)n1-c1ccccc1` (configuration not stated) as the molecule, how does the Potency read?
Answer: inactive

Question: For `CCC(=O)NC(c1ccc(C)cc1)c1cc([N+](=O)[O-])c2cccnc2c1O` (configuration not stated), which Potency is on record?
Answer: inconclusive: 20.6 µM [cytotoxic, partial curve]

Question: For `Cc1ccc(C=C2C(Cl)=C(Cl)C(Cl)=C2Cl)cc1`, which Potency is on record?
Answer: inconclusive: 29.1 µM [cytotoxic, single point]
